This sample is rich in variants without activity.
Tests used:
biotinyl-Met-oxazolone = test: self-aminoacylation, catalytic enhancement (BMO) (fold over background); higher = more active; k-Seq, kA / k0A0; sequences stand for … in GGGAAUGGAUCCACAUCUACGAAUUC…UUCACUGCAGACUUGACGAAGCUG
Outline: (§1)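 Each biotinyl-aminoacyl-oxazolone, at 2–1250 μM, was incubated with mutagenized RNA pools (0.43 μM) carrying a 21-nt variable region. The 50 μL reactions contained HEPES/NaCl/KCl/MgCl2/CaCl2 buffer with 5% acetonitrile at pH 6.9–7.0 and ran for 90 minutes at room temperature. After streptavidin capture, RNA was measured by qPCR in triplicate and by Illumina sequencing, and catalytic enhancement was calculated as median kA over the uncatalyzed rate from a pseudo-first-order fit of per-sequence fraction reacted.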

biotinyl-Val-oxazolone = test: self-aminoacylation, catalytic enhancement (BVO) (fold over background); higher = more active; k-Seq, kA / k0A0; sequences stand for … in GGGAAUGGAUCCACAUCUACGAAUUC…UUCACUGCAGACUUGACGAAGCUG
Outline: as §1

biotinyl-Leu-oxazolone = test: self-aminoacylation, catalytic enhancement (BLO) (fold over background); higher = more active; k-Seq, kA / k0A0; sequences stand for … in GGGAAUGGAUCCACAUCUACGAAUUC…UUCACUGCAGACUUGACGAAGCUG
Outline: as §1

biotinyl-Phe-oxazolone = test: self-aminoacylation, catalytic enhancement (BFO) (fold over background); higher = more active; k-Seq, kA / k0A0; sequences stand for … in GGGAAUGGAUCCACAUCUACGAAUUC…UUCACUGCAGACUUGACGAAGCUG
Outline: as §1

biotinyl-Trp-oxazolone = test: self-aminoacylation, catalytic enhancement (BWO) (fold over background); higher = more active; k-Seq, kA / k0A0; sequences stand for … in GGGAAUGGAUCCACAUCUACGAAUUC…UUCACUGCAGACUUGACGAAGCUG
Outline: as §1

biotinyl-Ile-oxazolone = test: self-aminoacylation, catalytic enhancement (BIO) (fold over background); higher = more active; k-Seq, kA / k0A0; sequences stand for … in GGGAAUGGAUCCACAUCUACGAAUUC…UUCACUGCAGACUUGACGAAGCUG
Outline: as §1

Sequence | self-aminoacylation (biotinyl-Met-oxazolone) | self-aminoacylation (biotinyl-Val-oxazolone) | self-aminoacylation (biotinyl-Leu-oxazolone) | self-aminoacylation (biotinyl-Phe-oxazolone) | self-aminoacylation (biotinyl-Trp-oxazolone) | self-aminoacylation (biotinyl-Ile-oxazolone)
CCACUUUUCAAGCAAUCGGUC [Fam1B.1 aminoacylation ribozyme variant] | 1.1 | 1.32 | 1.1 | 1.58 | 1.06 | 1.25
CUACUUGAAACAAUUGGUCUG [Fam1A.1 aminoacylation ribozyme variant] | 1.31 | 1.1 | 1.03 | 0.632 | 0.892 | 1.17
AUUACCCUGUUCAUCGAGUGC [Fam2.1 aminoacylation ribozyme variant] | 0.904 | 0.955 | 0.936 | 0.779 | 0.949 | 0.827
CUACUGCAAGCAAUCGGUCUG [Fam1A.1 aminoacylation ribozyme variant] | 0.977 | 1.02 | 0.944 | 1.21 | 0.845 | 1.08
GUACUUCAAAAAAUCGGUCUG [Fam1A.1 aminoacylation ribozyme variant] | 1.16 | 1.11 | 1.62 | 7.83 | 7.93 | 1.57
CUACUUGAAACCAUCGGUCUG [Fam1A.1 aminoacylation ribozyme variant] | 0.916 | 0.981 | 0.736 | 0.91 | 0.929 | 0.986
AUUACCUUGGUCAUCGAGUGU [Fam2.1 aminoacylation ribozyme variant] | 3.47 | 2.37 | 3.59 | 3.39 | 3.8 | 2.19
CCAUACUUCAUGCAAUCGGUC [Fam1B.1 aminoacylation ribozyme variant] | 0.806 | 0.858 | 0.832 | 0.778 | 0.56 | 0.875
AAGUUUGCUAAGCGUCGCAAG [Fam3.1 aminoacylation ribozyme variant] | 0.744 | 0.913 | 0.76 | 1.03 | 1.02 | 0.902
CUUCUUGAAACAAUCGGUCUG [Fam1A.1 aminoacylation ribozyme variant] | 0.762 | 0.85 | 0.928 | 0.803 | 0.71 | 0.886
CCACACUUCGAGGAAUCGGUC [Fam1B.1 aminoacylation ribozyme variant] | 1.12 | 1.12 | 1.36 | 1.03 | 1.09 | 1.16
AAGUUUGCUGAUAGUUGCAAG [Fam3.1 aminoacylation ribozyme variant] | 1.1 | 0.894 | 1 | 1.5 | 1.64 | 1.02
CAACACUUCAAGCAAUCGUUC [Fam1B.1 aminoacylation ribozyme variant] | 0.81 | 0.828 | 0.648 | 1.47 | 0.748 | 0.845
AAGUAUGCUAAAAGUCGCAAG [Fam3.1 aminoacylation ribozyme variant] | 1.39 | 1.4 | 1.87 | 8.97 | 3.97 | 1.86
GUUCACCUAGGUCAUCGUGUG [Fam2.2 aminoacylation ribozyme variant] | 1.14 | 1.22 | 1.24 | 0.565 | 0.945 | 1.08
CUACUUCAAACCUUCGGUCUG [Fam1A.1 aminoacylation ribozyme variant] | 1.1 | 1.1 | 1.12 | 0.832 | 0.649 | 1.05
AAGUUUGAUAAUAGUCGCAUG [Fam3.1 aminoacylation ribozyme variant] | 0.778 | 0.774 | 0.836 | 1.19 | 0.69 | 0.996
CCACAAUCCAAGCAAUCGGUC [Fam1B.1 aminoacylation ribozyme variant] | 1.17 | 1.33 | 1.14 | 1.12 | 0.895 | 1.2
AUUACCCUCGUCAUCGAUUGA [Fam2.1 aminoacylation ribozyme variant] | 0.788 | 0.779 | 0.671 | 0.539 | 0.823 | 0.735
AUUAACCUAGGUCAUCGGGUC [Fam2.2 aminoacylation ribozyme variant] | 1.58 | 1.23 | 1.15 | 0.858 | 0.729 | 1.09
CCACACAUCAUGCAAUCGGUC [Fam1B.1 aminoacylation ribozyme variant] | 0.465 | 0.893 | 0.639 | 1.04 | 0.729 | 0.907
CAACAUUUCAAGCAAUCGGUC [Fam1B.1 aminoacylation ribozyme variant] | 0.947 | 1.1 | 0.929 | 1.81 | 1.54 | 1.04
CUGCUUUAAACAAUCGGUCUG [Fam1A.1 aminoacylation ribozyme variant] | 0.879 | 0.79 | 0.754 | 2 | 1.87 | 0.889
ACACACUUCAUGCAAUCGGUC [Fam1B.1 aminoacylation ribozyme variant] | 0.96 | 1.21 | 1.09 | 1.44 | 1.31 | 1.26
AUUACCCUGUUCAUCGAGUAA [Fam2.1 aminoacylation ribozyme variant] | 1.3 | 1.44 | 1.15 | 1.26 | 0.537 | 1.38
UAGUUUGCUAAUAGUCGCAAG [Fam3.1 aminoacylation ribozyme variant] | 1.27 | 1.27 | 1.25 | 9.38 | 3.18 | 1.45

Sequence | self-aminoacylation (biotinyl-Met-oxazolone) | self-aminoacylation (biotinyl-Val-oxazolone) | self-aminoacylation (biotinyl-Leu-oxazolone) | self-aminoacylation (biotinyl-Phe-oxazolone) | self-aminoacylation (biotinyl-Trp-oxazolone) | self-aminoacylation (biotinyl-Ile-oxazolone)
AAGUAUGCUACUAGUCGCAAG [Fam3.1 aminoacylation ribozyme variant] | 1.04 | 1.16 | 1.29 | 1.86 | 1.66 | 1.6
GCACACUUCAAGCAAUCGGAC [Fam1B.1 aminoacylation ribozyme variant] | 1.03 | 1.6 | 1.34 | 1.34 | 1.4 | 1.31
AUUACCCCGGUCAUCGAGUGU [Fam2.1 aminoacylation ribozyme variant] | 2.58 | 1.87 | 2.45 | 9.98 | 3.57 | 1.56
GCACACUUCAAGCAAUCGGUC [Fam1B.1 aminoacylation ribozyme variant] | 1.47 | 1.71 | 1.82 | 32.3 | 19.8 | 1.66
AAGUUUGCAAAUGGUCGCAAG [Fam3.1 aminoacylation ribozyme variant] | 0.747 | 0.863 | 0.823 | 1.75 | 0.969 | 0.697
CUACUUCAAACAGACGGUCUG [Fam1A.1 aminoacylation ribozyme variant] | 0.627 | 0.66 | 0.628 | 1.06 | 0.435 | 0.754
AAGUUUGCAAAUAGUGGCAAG [Fam3.1 aminoacylation ribozyme variant] | 0.825 | 0.624 | 0.964 | 1.2 | 0.861 | 0.944
CUACUUUAAACAAUCGGUCUU [Fam1A.1 aminoacylation ribozyme variant] | 1.09 | 0.885 | 0.738 | 0.805 | 0.6 | 0.888
AAGUCUGCUAAUUGUCGCAAG [Fam3.1 aminoacylation ribozyme variant] | 1.69 | 1.06 | 0.931 | 1.84 | 1.74 | 1.06
AUUCACCUAUGUCAUCGGGUC [Fam2.2 aminoacylation ribozyme variant] | 1.02 | 0.916 | 0.797 | 0.551 | 0.822 | 0.898
CCACACUUCAAGCAAUGGGAC [Fam1B.1 aminoacylation ribozyme variant] | 1.12 | 1.26 | 0.783 | 0.964 | 1.54 | 1.19
CUACUACAAACAAUCGGUCCG [Fam1A.1 aminoacylation ribozyme variant] | 0.953 | 1.02 | 0.78 | 0.697 | 0.846 | 0.68
CCACACUUCAAGCAAGGGGUC [Fam1B.1 aminoacylation ribozyme variant] | 0.574 | 0.784 | 0.784 | 0.923 | 0.677 | 0.687
AAGUUUGCUAAUACUCGCAAC [Fam3.1 aminoacylation ribozyme variant] | 0.865 | 0.962 | 0.635 | 1.11 | 0.906 | 0.86
CUACGUCAAACAAUAGGUCUG [Fam1A.1 aminoacylation ribozyme variant] | 0.62 | 0.94 | 0.855 | 1.5 | 0.602 | 0.789
CUAUUUUAAACAAUCGGUCUG [Fam1A.1 aminoacylation ribozyme variant] | 1.02 | 0.977 | 0.894 | 0.762 | 0.668 | 0.99
CCACACUUUAAGCAAACGGUC [Fam1B.1 aminoacylation ribozyme variant] | 0.522 | 0.86 | 0.552 | 0.702 | 0.444 | 0.706
AUUCACCUAGGUCAGCGGGAG [Fam2.2 aminoacylation ribozyme variant] | 1.17 | 1.18 | 1.72 | 0.81 | 0.859 | 1.35
AGGUUUGCUGAUAGUCGCAAG [Fam3.1 aminoacylation ribozyme variant] | 1.53 | 1.2 | 1.83 | 2.52 | 1.83 | 1.49
AUUACCCUAGUCAUUGAGUGA [Fam2.1 aminoacylation ribozyme variant] | 6.69 | 3.86 | 6.93 | 25.9 | 9.31 | 3.69
AAGUAUGGUAAUAGUCGCAAG [Fam3.1 aminoacylation ribozyme variant] | 1.54 | 1.33 | 1.69 | 1.46 | 1.46 | 1.61
AAGUUUGCUUAAAGUCGCAAG [Fam3.1 aminoacylation ribozyme variant] | 0.754 | 0.897 | 0.896 | 1.07 | 1.1 | 0.972
AAUCUUGCUAAUAGUCGCAAG [Fam3.1 aminoacylation ribozyme variant] | 1.16 | 1.45 | 1.8 | 2 | 1.75 | 1.57
CCACACUACAAGCAAUCGGGC [Fam1B.1 aminoacylation ribozyme variant] | 0.957 | 1.36 | 1.03 | 1.38 | 1.16 | 1.45
AAGUUUGCUAAUAGGCUCAAG [Fam3.1 aminoacylation ribozyme variant] | 0.493 | 0.774 | 0.715 | 0.973 | 0.535 | 0.664

From the supplement of paper PMC9233669
